# Results are given in words; binding and its absence hold for the method and conditions named. Some binding calls cover weakened binding; strength is not graded here. For part of these data: Sequences can lack the tags named with a protein.
# Amino acid sequences for entries named in this document (tags omitted). Residues count along the entry.
# UniProt P26718, residues 78-216: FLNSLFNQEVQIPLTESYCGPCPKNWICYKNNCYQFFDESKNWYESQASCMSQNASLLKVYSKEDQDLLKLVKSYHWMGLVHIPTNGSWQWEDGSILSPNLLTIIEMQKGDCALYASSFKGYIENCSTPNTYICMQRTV
# T1: murine NKG2D-Fc (murine) (UniProt O54709)
# T1 sequence (looked up): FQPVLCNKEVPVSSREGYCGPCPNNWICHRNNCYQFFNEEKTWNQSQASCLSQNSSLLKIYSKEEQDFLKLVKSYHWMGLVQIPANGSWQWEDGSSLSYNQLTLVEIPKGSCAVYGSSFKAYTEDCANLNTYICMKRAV
# Target: biotinylated human NKG2D (Example 1) (human) (UniProt P26718)
# Test: BLI (Octet)
row,Binder,binding
1,"WED-MICA α1-α2 domain (N69W, K152E, K154D) (ligand) EPHSLRYNLTVLSWDGSVQSGFLTEVHLDGQPFLRCDRQKCRAKPQGQWAEDVLGNKTWDRETRDLTGWGKDLRMTLAHIKDQKEGLHSLQEIRVCEIHEDNSTRSSQHFYYDGELFLSQNLETKEWTMPQSSRAQTLAMNVRNFLKEDAMETDTHYHAMHADCLQELRRYLKSGVVLRRTVPPMVQVTRSEASGGSGDRVTITCRASQDVSTAVAWYQQKPGKAPKLLIYSASFLYSGVPSRFSGSGSGTDFTLTISSLQPEDFATYYCQQSYTTPPTFGQGTKVEIKGGSSRSSSSGGGGSGGGGEVQLVESGGGLVQPGGSLRLSCAASGFTFTSTGISWVRQAPGKGLEWVGRIYPTNGSTNYADSVKGRFTISADTSKNTAYLQMNSLRAEDTAVYYCARTYGIYDLYVDYTEYVMDYWGQGTLVTVSSGGSSRSSSSGGGGSGGGGDIQMTQSPSSLSASGGSGQITVTCRASGFYPWNITLSWRQDGVSLSHDTQQWGDVLPDGQGTYQTWVATRISQGEEQRFTCYMEHSGQHSTHPVPSGKGSHHHHHH",binds

# Target: T1, murine NKG2D-Fc (murine)
# Test: competition ELISA with murine NKG2D-Fc
row,Binder,binding
1,"α1-α2 variant 15 (His-tagged, with attached heterologous polypeptide) (ligand) EPHSLRYNLTVLSWDGSVQSGFLTEVHLDGQPFLRCDRQKCRAKPQGQWAEDVLGNKTWDRETRDLTGWGKDLRMTLAHIKDQKEGLHSLQEIRVCEIHEDNSTRSSQHFYYDGELFLSQNLETNEWTMPQSSRAQTLAMNVRNFLKEDAMETDTHYHAMRADCLQELRRYLKSGVVLRRTVPPMVQVTRSEASGGSGDRVTITCRASQDVSTAVAWYQQKPGKAPKLLIYSASFLYSGVPSRFSGSGSGTDFTLTISSLQPEDFATYYCQQSYTTPPTFGQGTKVEIKGGSSRSSSSGGGGSGGGGEVQLVESGGGLVQPGGSLRLSCAASGFTFTSTGISWVRQAPGKGLEWVGRIYPTNGSTNYADSVKGRFTISADTSKNTAYLQMNSLRAEDTAVYYCARTYGIYDLYVDYTEYVMDYWGQGTLVTVSSGGSSRSSSSGGGGSGGGGDIQMTQSPSSLSASGGSGQITVTCRASGFYPWNITLSWRQDGVSLSHDTQQWGDVLPDGQGTYQTWVATRISQGEEQRFTCYMEHSGQHSTHPVPSGKGSHHHHHH",binds
2,"α1-α2 variant 16 (His-tagged, with attached heterologous polypeptide) (ligand) EPHSLRYNLTVLSWDGSVQSGFLTEVHLDGQPFLRCDRQKCRAKPQGQWAEDVLGNKTWDRETRDLTGWGKDLRMTLAHIKDQKEGLHSLQEIRVCEIHEDNSTRSSQHFYYDGELFLSQNLETLEWTMPQSSRAQTLAMNVRNFLKEDAMETDTHYHAMRADCLQELRRYLKSGVVLRRTVPPMVQVTRSEASGGSGDRVTITCRASQDVSTAVAWYQQKPGKAPKLLIYSASFLYSGVPSRFSGSGSGTDFTLTISSLQPEDFATYYCQQSYTTPPTFGQGTKVEIKGGSSRSSSSGGGGSGGGGEVQLVESGGGLVQPGGSLRLSCAASGFTFTSTGISWVRQAPGKGLEWVGRIYPTNGSTNYADSVKGRFTISADTSKNTAYLQMNSLRAEDTAVYYCARTYGIYDLYVDYTEYVMDYWGQGTLVTVSSGGSSRSSSSGGGGSGGGGDIQMTQSPSSLSASGGSGQITVTCRASGFYPWNITLSWRQDGVSLSHDTQQWGDVLPDGQGTYQTWVATRISQGEEQRFTCYMEHSGQHSTHPVPSGKGSHHHHHH",binds
3,"α1-α2 variant 17 (His-tagged, with attached heterologous polypeptide) (ligand) EPHSLRYNLTVLSWDGSVQSGFLTEVHLDGQPFLRCDRQKCRAKPQGQWAEDVLGNKTWDRETRDLTLWGKDLRMTLAHIKDQKEGLHSLQEIRVCEIHEDNSTRSSQHFYYDGELFLSQNLETLEWTMPQSSRAQTLAMNVRNFLKEDAMETDTHYHAMRADCLQELRRYLKSGVVLRRTVPPMVQVTRSEASGGSGDRVTITCRASQDVSTAVAWYQQKPGKAPKLLIYSASFLYSGVPSRFSGSGSGTDFTLTISSLQPEDFATYYCQQSYTTPPTFGQGTKVEIKGGSSRSSSSGGGGSGGGGEVQLVESGGGLVQPGGSLRLSCAASGFTFTSTGISWVRQAPGKGLEWVGRIYPTNGSTNYADSVKGRFTISADTSKNTAYLQMNSLRAEDTAVYYCARTYGIYDLYVDYTEYVMDYWGQGTLVTVSSGGSSRSSSSGGGGSGGGGDIQMTQSPSSLSASGGSGQITVTCRASGFYPWNITLSWRQDGVSLSHDTQQWGDVLPDGQGTYQTWVATRISQGEEQRFTCYMEHSGQHSTHPVPSGKGSHHHHHH",binds
4,"α1-α2 variant 18 (His-tagged, with attached heterologous polypeptide) (ligand) EPHSLRYNLTVLSWDGSVQPGFLTEVHLDGQPFLRCDRQKCRAKPQGQWAEDVLGNKTWDRETRDLTLWGKDLRMTLAHIKDQKEGLHSLQEIRVCEIHEDNSTRSSQHFYYDGELFLSQNLETLEWTMPQSSRAQTLAMNVRNFLKEDAMETDTHYHAMRADCLQELRRYLKSGVVLRRTVPPMVQVTRSEASGGSGDRVTITCRASQDVSTAVAWYQQKPGKAPKLLIYSASFLYSGVPSRFSGSGSGTDFTLTISSLQPEDFATYYCQQSYTTPPTFGQGTKVEIKGGSSRSSSSGGGGSGGGGEVQLVESGGGLVQPGGSLRLSCAASGFTFTSTGISWVRQAPGKGLEWVGRIYPTNGSTNYADSVKGRFTISADTSKNTAYLQMNSLRAEDTAVYYCARTYGIYDLYVDYTEYVMDYWGQGTLVTVSSGGSSRSSSSGGGGSGGGGDIQMTQSPSSLSASGGSGQITVTCRASGFYPWNITLSWRQDGVSLSHDTQQWGDVLPDGQGTYQTWVATRISQGEEQRFTCYMEHSGQHSTHPVPSGKGSHHHHHH",binds
5,"WED-MICA α1-α2 domain (N69W, K152E, K154D) (ligand) EPHSLRYNLTVLSWDGSVQSGFLTEVHLDGQPFLRCDRQKCRAKPQGQWAEDVLGNKTWDRETRDLTGWGKDLRMTLAHIKDQKEGLHSLQEIRVCEIHEDNSTRSSQHFYYDGELFLSQNLETKEWTMPQSSRAQTLAMNVRNFLKEDAMETDTHYHAMHADCLQELRRYLKSGVVLRRTVPPMVQVTRSEASGGSGDRVTITCRASQDVSTAVAWYQQKPGKAPKLLIYSASFLYSGVPSRFSGSGSGTDFTLTISSLQPEDFATYYCQQSYTTPPTFGQGTKVEIKGGSSRSSSSGGGGSGGGGEVQLVESGGGLVQPGGSLRLSCAASGFTFTSTGISWVRQAPGKGLEWVGRIYPTNGSTNYADSVKGRFTISADTSKNTAYLQMNSLRAEDTAVYYCARTYGIYDLYVDYTEYVMDYWGQGTLVTVSSGGSSRSSSSGGGGSGGGGDIQMTQSPSSLSASGGSGQITVTCRASGFYPWNITLSWRQDGVSLSHDTQQWGDVLPDGQGTYQTWVATRISQGEEQRFTCYMEHSGQHSTHPVPSGKGSHHHHHH",binds

# From patent US20200239541A1
